Taken from: PubChem BioAssay AID743121 (NCATS, 2013)

Screen: 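Genes whose silencing strengthens cell killing by camptothecin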 (primary screen)
System: MDA-MB-231 cells, a human breast cancer line
Reagents: single siRNA against human genes, 20 nM siRNA (0.8 pmol per well)
Duration: 120 h (drug added 48 h after transfection, read 72 h later)
Treatment: camptothecin 20 nM (about EC30) for 72 h; vehicle 0.1% DMSO in parallel plates
Read-out: 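Cell viability by ATP luminescence (CellTiter-Glo) as % of non-targeting siRNA wells, and the log2 ratio of viability without drug over viability with camptothecin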
Reading the numbers: log2 vehicle/camptothecin viability: higher = stronger sensitisation to camptothecin
Call rule: 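Each gene scored by redundant siRNA activity (RSA) over its individual siRNA ratios; a gene is called active at p < 0.001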
Shown is an unselected part of about 26,000 deposited reagents. 167 of all reagents (0.63%) were called active. 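Calls are per gene from RSA p-values that are not deposited; an individual active-marked siRNA can sensitise only weakly.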 Reagents against one gene are numbered here. Further read-outs or replicates are left out here. No sequences are given here.

With MARK2 #1, how do the results read?
log2 vehicle/camptothecin viability: -0.184; outcome: inactive

Which result is listed for MARK2 #2?
log2 vehicle/camptothecin viability: -0.41; outcome: inactive

What is on record for MARK2 #3?
log2 vehicle/camptothecin viability: -0.674; outcome: inactive

With MARK2 #4, how do the results read?
log2 vehicle/camptothecin viability: -0.13; outcome: inactive

For GAD2 #1, what was measured?
log2 vehicle/camptothecin viability: 0.354; outcome: inactive

With GAD2 #2, what was measured?
log2 vehicle/camptothecin viability: -0.169; outcome: inactive

With GAD2 #3, how do the results read?
log2 vehicle/camptothecin viability: -0.383; outcome: inactive

Which result is listed for GAD2 #4?
log2 vehicle/camptothecin viability: -0.291; outcome: inactive

With FLVCR1 #1, how do the results read?
log2 vehicle/camptothecin viability: 0.0772; outcome: inactive

What is on record for FLVCR1 #2?
log2 vehicle/camptothecin viability: -0.297; outcome: inactive

With FLVCR1 #3, what was measured?
log2 vehicle/camptothecin viability: -0.399; outcome: inactive

Copied from the entries so far (4 entries):
MARK2 #2: log2 vehicle/camptothecin viability = -0.41; outcome = inactive
MARK2 #3: log2 vehicle/camptothecin viability = -0.674; outcome = inactive
MARK2 #4: log2 vehicle/camptothecin viability = -0.13; outcome = inactive
GAD2 #1: log2 vehicle/camptothecin viability = 0.354; outcome = inactive

The listing continues.
What did the screen give for CDK10 #1?
log2 vehicle/camptothecin viability: -0.417; outcome: inactive

For CDK10 #2, what does the deposit list?
log2 vehicle/camptothecin viability: 0.549; outcome: inactive

What did the screen give for CDK10 #3?
log2 vehicle/camptothecin viability: -0.0209; outcome: inactive

With CDK10 #4, how do the results read?
log2 vehicle/camptothecin viability: -0.524; outcome: inactive

For PRND #1, what does the deposit list?
log2 vehicle/camptothecin viability: -0.443; outcome: inactive

For PRND #2, what does the deposit list?
log2 vehicle/camptothecin viability: -0.657; outcome: inactive

With PRND #3, what does the deposit list?
log2 vehicle/camptothecin viability: 0.0804; outcome: inactive

For PRND #4, what does the deposit list?
log2 vehicle/camptothecin viability: -0.389; outcome: inactive

With GNAL #1, how do the results read?
log2 vehicle/camptothecin viability: -0.377; outcome: inactive

Which result is listed for GNAL #2?
log2 vehicle/camptothecin viability: 0.549; outcome: inactive

What is on record for GNAL #3?
log2 vehicle/camptothecin viability: -0.126; outcome: inactive

With GNAL #4, what does the deposit list?
log2 vehicle/camptothecin viability: -0.0228; outcome: inactive

With ERC1 #1, what does the deposit list?
log2 vehicle/camptothecin viability: -0.125; outcome: inactive

What did the screen give for ERC1 #2?
log2 vehicle/camptothecin viability: -0.433; outcome: inactive

How did the screen score ERC1 #3?
log2 vehicle/camptothecin viability: -0.27; outcome: inactive

What did the screen give for ERC1 #4?
log2 vehicle/camptothecin viability: -0.171; outcome: inactive
